Experimental data: PubChem BioAssay AID743454 (Peter MacCallum Cancer Centre, 2014)
The whole screen tested about 18,000 reagents; below is an unselected part. In the full data, 450 (2.5%) got an active call. 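Single biological run; no consistent viability z cut-off exists, so the class columns, not z-scores, define the calls.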

Test: 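Knock-downs lowering viability or raising caspase 3/7 activity in vorinostat-treated resistant cells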 (primary screen)
System: human HCT116-VR colon cancer cells, selected for vorinostat resistance
Reagents: siRNA pool against human genes, 40 nM siRNA pool
Timing: vorinostat for 24 h, read-out about 72 h after transfection
Conditions: vorinostat at 2.5 µM final
Measured: 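Two measures, CellTiter-Fluor viability and luminescent caspase 3/7 activity, each as fold change against same-plate mock wells, mean of duplicates, then screen-wide robust z-score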
Direction: viability robust z-score: higher = more viable cells than screen typical; caspase robust z-score: higher = more caspase 3/7 activity than screen typical
Rule for the call: 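Hits are knock-downs in viability class RV1/RV2 or caspase class CA1/CA2, excluding ones that killed cells in the no-drug cell-count arm; hits then retested with single siRNAs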

The opening 2 records, to show the layout:
| gene | PubChem SID | viability hit class | caspase hit class | viability robust z-score | caspase robust z-score | call |
| --- | --- | --- | --- | --- | --- | --- |
| RIOK2 (GeneID 55781) | SID134310711 | no change | no change | -2.03 | -0.93 | inactive |
| H4C13 (GeneID 8368) | SID152156435 | no change | no change | -0.5 | 0.73 | inactive |

Main list, from the start:
| gene | PubChem SID | viability hit class | caspase hit class | viability robust z-score | caspase robust z-score | call |
| --- | --- | --- | --- | --- | --- | --- |
| RIOK2 (GeneID 55781) | SID134310711 | no change | no change | -2.03 | -0.93 | inactive |
| H4C13 (GeneID 8368) | SID152156435 | no change | no change | -0.5 | 0.73 | inactive |
| MAPK8IP3 (GeneID 23162) | SID152155657 | no change | no change | 2.3 | -0.49 | inactive |
| MCU (GeneID 90550) | SID134319557 | no change | no change | -0.2 | -1.07 | inactive |
| MRGPRE (GeneID 116534) | SID152149442 | no change | no change | -1.21 | 2.1 | inactive |
| CDRT15 (GeneID 146822) | SID135624347 | no change | no change | 1.06 | -0.22 | inactive |
| HAUS7 (GeneID 55559) | SID152151622 | no change | no change | -0.22 | 0.96 | inactive |
| GTF3A (GeneID 2971) | SID152148272 | no change | no change | -0.15 | 0.84 | inactive |
| EIF4E3 (GeneID 317649) | SID135625257 | no change | no change | -0.32 | 1.1 | inactive |
| ZNF839 (GeneID 55778) | SID152152149 | no change | no change | -0.92 | -1.27 | inactive |
| CENPT (GeneID 80152) | SID135622768 | no change | no change | 1.16 | 1.49 | inactive |
| KRT20 (GeneID 54474) | SID134317617 | no change | no change | 1 | 1.15 | inactive |
| FYCO1 (GeneID 79443) | SID135622723 | no change | no change | -1.05 | 0.32 | inactive |
| SGMS1 (GeneID 259230) | SID134323262 | no change | no change | 0.92 | -0.16 | inactive |
| CACNA1B (GeneID 774) | SID134311541 | no change | no change | 0.43 | -0.12 | inactive |
| CENPF (GeneID 1063) | SID152150064 | no change | no change | 0.04 | 0.59 | inactive |
| HYAL1 (GeneID 3373) | SID134315016 | no change | no change | -0.58 | 3.12 | inactive |
| CPT1C (GeneID 126129) | SID135621655 | no change | no change | 0.21 | -0.18 | inactive |
| CYP1A2 (GeneID 1544) | SID152154383 | no change | no change | -1.61 | 2.05 | inactive |
| LY6G6F (GeneID 259215) | SID134329824 | no change | no change | 1.06 | -0.65 | inactive |
| CHCHD7 (GeneID 79145) | SID152150795 | no change | no change | 0.14 | -0.22 | inactive |
| BLVRB (GeneID 645) | SID134310243 | no change | no change | 0.26 | 0.09 | inactive |
| PLSCR2 (GeneID 57047) | SID134329463 | no change | no change | 0.76 | 0.23 | inactive |
| MYNN (GeneID 55892) | SID152152300 | no change | no change | 0.83 | 0.04 | inactive |
| GREM2 (GeneID 64388) | SID135623455 | no change | no change | -0.31 | -0.02 | inactive |
| TRPV6 (GeneID 55503) | SID134309963 | no change | no change | -0.04 | 0.52 | inactive |
| DGKG (GeneID 1608) | SID152147412 | no change | no change | 1.38 | 0.37 | inactive |
| GOLGA4 (GeneID 2803) | SID134316671 | no change | no change | 0.14 | -0.92 | inactive |
| BYSL (GeneID 705) | SID152155349 | no change | no change | -2.9 | -0.6 | inactive |
| DBNL (GeneID 28988) | SID152155371 | no change | no change | 0.7 | 1.6 | inactive |
| DCT (GeneID 1638) | SID134310834 | no change | no change | 0.91 | -0.38 | inactive |
| PKNOX1 (GeneID 5316) | SID134324996 | no change | no change | 0.6 | -0.36 | inactive |
| BMP2 (GeneID 650) | SID152155517 | no change | no change | 0.68 | -0.83 | inactive |
| TULP2 (GeneID 7288) | SID135622122 | no change | no change | -0.93 | 1.44 | inactive |
| TMC2 (GeneID 117532) | SID135622491 | no change | no change | -1.07 | -0.3 | inactive |
| C1QTNF3 (GeneID 114899) | SID135622797 | no change | no change | -0.98 | -0.98 | inactive |
| CSMD3 (GeneID 114788) | SID134312807 | no change | no change | -0.46 | 0.22 | inactive |
| OPN3 (GeneID 23596) | SID152153052 | no change | no change | 0.52 | -0.93 | inactive |
| ASAH1 (GeneID 427) | SID152149154 | no change | no change | -1.3 | 0.94 | inactive |
